Source: paper PMC5865676

By UniProt entry, the sequences of proteins in these tests, tags left out.
UniProt O00571: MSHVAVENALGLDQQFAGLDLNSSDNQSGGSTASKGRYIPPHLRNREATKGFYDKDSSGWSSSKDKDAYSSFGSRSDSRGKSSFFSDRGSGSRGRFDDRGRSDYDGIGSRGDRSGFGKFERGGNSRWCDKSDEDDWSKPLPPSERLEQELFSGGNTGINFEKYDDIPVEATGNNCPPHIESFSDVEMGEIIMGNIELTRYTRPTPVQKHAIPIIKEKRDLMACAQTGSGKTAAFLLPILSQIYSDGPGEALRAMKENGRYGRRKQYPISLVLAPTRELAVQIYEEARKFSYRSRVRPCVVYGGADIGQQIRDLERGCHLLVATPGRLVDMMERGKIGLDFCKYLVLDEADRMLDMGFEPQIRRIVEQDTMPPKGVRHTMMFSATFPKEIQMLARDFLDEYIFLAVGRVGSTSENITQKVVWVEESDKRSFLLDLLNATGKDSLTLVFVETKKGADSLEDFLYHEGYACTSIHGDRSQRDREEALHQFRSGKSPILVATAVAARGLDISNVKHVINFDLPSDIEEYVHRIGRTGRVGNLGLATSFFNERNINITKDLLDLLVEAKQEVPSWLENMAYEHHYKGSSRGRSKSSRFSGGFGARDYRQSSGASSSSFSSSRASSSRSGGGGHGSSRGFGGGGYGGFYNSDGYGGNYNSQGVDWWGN
UniProt Q99832: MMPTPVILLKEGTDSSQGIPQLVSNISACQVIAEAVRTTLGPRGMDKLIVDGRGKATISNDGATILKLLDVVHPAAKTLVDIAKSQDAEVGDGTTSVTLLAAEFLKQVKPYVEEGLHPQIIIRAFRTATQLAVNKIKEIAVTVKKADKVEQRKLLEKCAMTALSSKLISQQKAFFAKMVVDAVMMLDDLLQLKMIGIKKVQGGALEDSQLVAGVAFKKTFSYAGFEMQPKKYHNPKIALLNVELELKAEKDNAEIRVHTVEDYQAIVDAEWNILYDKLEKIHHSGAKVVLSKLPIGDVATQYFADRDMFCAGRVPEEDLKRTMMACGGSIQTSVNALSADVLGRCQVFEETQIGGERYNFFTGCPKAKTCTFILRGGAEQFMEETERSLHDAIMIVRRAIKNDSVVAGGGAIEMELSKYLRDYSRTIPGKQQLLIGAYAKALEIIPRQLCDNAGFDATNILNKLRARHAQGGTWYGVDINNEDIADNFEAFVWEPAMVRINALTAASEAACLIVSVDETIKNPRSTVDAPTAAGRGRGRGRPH
UniProt P50990: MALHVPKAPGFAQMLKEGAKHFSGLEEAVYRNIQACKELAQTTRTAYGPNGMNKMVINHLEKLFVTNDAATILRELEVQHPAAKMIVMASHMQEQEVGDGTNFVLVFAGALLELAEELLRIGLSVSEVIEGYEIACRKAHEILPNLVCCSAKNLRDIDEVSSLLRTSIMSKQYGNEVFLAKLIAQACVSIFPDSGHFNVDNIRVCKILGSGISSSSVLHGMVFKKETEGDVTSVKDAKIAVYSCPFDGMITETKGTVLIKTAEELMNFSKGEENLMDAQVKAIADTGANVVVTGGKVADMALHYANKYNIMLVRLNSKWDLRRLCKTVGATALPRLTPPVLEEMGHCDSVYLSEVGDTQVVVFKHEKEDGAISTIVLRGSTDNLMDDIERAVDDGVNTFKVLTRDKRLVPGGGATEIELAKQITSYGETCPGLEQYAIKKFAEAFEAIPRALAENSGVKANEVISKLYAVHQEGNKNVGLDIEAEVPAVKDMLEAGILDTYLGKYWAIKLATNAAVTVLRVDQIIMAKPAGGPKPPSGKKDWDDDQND
UniProt P05198: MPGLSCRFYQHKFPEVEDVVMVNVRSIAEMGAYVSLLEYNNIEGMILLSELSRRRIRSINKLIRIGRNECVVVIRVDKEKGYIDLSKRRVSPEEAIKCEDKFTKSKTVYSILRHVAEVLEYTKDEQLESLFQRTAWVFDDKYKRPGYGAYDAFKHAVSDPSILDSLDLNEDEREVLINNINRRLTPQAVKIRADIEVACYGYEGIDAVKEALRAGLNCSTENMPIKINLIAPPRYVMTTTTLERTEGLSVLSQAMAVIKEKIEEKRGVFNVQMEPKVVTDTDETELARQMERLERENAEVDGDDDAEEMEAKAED
UniProt P06748: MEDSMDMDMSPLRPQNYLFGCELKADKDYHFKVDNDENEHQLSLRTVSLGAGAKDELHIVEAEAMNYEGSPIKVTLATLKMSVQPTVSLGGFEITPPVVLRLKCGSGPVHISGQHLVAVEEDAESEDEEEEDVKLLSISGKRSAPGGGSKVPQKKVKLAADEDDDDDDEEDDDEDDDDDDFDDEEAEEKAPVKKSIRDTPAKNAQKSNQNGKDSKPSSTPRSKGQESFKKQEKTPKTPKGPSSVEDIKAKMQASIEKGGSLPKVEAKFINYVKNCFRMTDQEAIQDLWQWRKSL
UniProt P62136: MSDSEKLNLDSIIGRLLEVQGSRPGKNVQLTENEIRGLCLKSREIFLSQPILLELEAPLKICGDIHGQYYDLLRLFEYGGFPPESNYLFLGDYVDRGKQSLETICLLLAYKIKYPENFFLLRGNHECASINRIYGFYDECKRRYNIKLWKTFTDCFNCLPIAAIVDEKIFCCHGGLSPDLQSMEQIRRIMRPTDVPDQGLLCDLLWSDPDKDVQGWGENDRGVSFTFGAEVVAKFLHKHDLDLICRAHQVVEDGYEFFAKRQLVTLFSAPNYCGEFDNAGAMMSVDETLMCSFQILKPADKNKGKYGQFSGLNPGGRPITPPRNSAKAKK
UniProt P62140: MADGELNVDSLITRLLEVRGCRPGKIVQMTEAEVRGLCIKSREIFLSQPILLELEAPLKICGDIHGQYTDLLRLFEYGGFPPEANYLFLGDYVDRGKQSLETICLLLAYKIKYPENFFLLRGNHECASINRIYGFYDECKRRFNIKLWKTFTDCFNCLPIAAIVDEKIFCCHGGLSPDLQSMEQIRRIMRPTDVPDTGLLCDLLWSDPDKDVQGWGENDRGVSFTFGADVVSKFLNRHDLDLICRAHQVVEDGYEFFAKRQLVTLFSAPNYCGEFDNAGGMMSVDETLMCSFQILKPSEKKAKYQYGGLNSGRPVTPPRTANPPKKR
UniProt P36873: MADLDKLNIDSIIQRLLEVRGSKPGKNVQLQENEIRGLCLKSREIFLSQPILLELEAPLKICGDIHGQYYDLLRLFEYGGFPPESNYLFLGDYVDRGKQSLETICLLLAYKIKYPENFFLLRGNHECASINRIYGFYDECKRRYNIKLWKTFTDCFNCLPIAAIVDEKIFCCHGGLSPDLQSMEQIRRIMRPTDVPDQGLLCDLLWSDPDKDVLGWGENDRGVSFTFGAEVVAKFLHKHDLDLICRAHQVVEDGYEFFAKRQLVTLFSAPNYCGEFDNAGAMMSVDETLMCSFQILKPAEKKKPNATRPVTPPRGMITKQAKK
UniProt P67775: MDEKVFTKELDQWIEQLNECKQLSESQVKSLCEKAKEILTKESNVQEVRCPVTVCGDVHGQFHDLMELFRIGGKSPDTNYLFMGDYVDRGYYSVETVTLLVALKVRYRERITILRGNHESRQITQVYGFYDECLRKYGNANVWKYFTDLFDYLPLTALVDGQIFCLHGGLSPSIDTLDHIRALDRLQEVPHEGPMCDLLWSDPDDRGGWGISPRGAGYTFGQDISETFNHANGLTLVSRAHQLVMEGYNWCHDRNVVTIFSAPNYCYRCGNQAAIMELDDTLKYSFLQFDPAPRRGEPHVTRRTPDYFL
UniProt P62714: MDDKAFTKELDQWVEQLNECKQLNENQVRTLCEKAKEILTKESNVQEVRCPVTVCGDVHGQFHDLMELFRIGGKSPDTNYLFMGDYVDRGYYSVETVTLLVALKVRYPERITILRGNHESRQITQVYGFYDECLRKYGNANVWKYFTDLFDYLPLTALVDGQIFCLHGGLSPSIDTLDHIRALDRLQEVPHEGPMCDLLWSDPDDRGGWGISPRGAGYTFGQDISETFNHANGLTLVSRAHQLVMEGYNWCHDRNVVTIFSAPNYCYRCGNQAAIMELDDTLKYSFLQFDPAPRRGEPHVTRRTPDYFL
UniProt Q13263: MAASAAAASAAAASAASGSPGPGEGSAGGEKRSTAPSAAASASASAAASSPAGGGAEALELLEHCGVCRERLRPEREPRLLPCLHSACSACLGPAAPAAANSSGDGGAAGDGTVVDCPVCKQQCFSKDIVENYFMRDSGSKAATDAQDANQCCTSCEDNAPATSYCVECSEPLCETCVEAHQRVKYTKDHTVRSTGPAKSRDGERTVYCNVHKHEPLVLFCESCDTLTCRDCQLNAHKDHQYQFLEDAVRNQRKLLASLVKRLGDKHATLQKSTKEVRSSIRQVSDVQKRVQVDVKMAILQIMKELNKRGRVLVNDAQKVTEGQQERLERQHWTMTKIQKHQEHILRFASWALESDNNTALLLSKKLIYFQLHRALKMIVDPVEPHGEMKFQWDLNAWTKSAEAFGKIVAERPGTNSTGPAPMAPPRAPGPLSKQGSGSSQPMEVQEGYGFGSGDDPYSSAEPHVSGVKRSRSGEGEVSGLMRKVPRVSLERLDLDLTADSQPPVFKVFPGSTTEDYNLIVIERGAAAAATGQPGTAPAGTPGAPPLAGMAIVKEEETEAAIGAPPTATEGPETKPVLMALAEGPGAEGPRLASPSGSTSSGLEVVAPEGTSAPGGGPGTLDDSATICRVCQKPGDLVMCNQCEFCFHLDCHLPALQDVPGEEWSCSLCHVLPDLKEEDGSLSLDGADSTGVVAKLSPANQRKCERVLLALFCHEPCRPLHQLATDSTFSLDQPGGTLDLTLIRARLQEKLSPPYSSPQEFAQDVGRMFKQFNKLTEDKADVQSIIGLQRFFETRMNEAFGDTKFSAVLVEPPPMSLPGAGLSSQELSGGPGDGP
UniProt P19474: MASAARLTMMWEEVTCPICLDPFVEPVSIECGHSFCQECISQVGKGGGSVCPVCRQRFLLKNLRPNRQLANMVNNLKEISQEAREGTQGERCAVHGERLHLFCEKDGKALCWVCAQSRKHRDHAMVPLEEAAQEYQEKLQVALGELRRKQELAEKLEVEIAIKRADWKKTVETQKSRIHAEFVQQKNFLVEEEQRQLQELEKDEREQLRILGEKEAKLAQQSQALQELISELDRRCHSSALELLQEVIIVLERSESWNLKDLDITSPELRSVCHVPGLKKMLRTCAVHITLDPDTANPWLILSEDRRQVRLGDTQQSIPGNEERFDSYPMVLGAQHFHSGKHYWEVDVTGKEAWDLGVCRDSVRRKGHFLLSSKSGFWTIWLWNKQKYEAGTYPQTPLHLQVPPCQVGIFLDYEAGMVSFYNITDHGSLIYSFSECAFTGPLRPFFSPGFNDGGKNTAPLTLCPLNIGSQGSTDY
UniProt P63104: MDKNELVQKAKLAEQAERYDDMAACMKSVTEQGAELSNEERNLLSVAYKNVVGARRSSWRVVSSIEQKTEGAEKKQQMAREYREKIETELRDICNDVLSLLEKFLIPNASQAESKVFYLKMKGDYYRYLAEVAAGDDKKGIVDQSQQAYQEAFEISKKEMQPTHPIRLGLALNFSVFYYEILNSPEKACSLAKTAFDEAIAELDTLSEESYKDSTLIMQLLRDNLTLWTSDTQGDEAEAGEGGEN
UniProt Q15365: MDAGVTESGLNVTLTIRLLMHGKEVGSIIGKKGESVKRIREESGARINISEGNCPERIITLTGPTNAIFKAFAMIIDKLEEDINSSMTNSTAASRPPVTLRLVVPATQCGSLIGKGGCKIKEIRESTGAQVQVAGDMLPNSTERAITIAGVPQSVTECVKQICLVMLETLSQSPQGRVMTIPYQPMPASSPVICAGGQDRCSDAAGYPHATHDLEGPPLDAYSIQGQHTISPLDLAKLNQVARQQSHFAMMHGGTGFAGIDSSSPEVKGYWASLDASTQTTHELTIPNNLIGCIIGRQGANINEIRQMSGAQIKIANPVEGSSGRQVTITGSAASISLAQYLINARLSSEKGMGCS

B1: TAK1-binding protein TAB1, endogenous (protein, UniProt Q15750 1-504)
chain: MAAQRRSLLQSEQQPSWTDDLPLCHLSGVGSASNRSYSADGKGTESHPPEDSWLKFRSENNCFLYGVFNGYDGNRVTNFVAQRLSAELLLGQLNAEHAEADVRRVLLQAFDVVERSFLESIDDALAEKASLQSQLPEGVPQHQLPPQYQKILERLKTLEREISGGAMAVVAVLLNNKLYVANVGTNRALLCKSTVDGLQVTQLNVDHTTENEDELFRLSQLGLDAGKIKQVGIICGQESTRRIGDYKVKYGYTDIDLLSAAKSKPIIAEPEIHGAQPLDGVTGFLVLMSEGLYKALEAAHGPGQANQEIAAMIDTEFAKQTSLDAVAQAVVDRVKRIHSDTFASGGERARFCPRHEDMTLLVRNFGYPLGEMSQPTPSPAPAAGGRVYPVSVPYSSAQSTSKTSVTLSLVMPSQGQMVNGAHSASTLDEATPTLTNQSPTLTLQSTNTHTQSSSSSSDGGLFRSRPAHSLPPGEDGRVEPYVDFAEFYRLWSVDHGEQSVVTAP
B2: TAK1-binding protein TAB2 (protein, UniProt Q9NYJ8 1-693)
chain: MAQGSHQIDFQVLHDLRQKFPEVPEVVVSRCMLQNNNNLDACCAVLSQESTRYLYGEGDLNFSDDSGISGLRNHMTSLNLDLQSQNIYHHGREGSRMNGSRTLTHSISDGQLQGGQSNSELFQQEPQTAPAQVPQGFNVFGMSSSSGASNSAPHLGFHLGSKGTSSLSQQTPRFNPIMVTLAPNIQTGRNTPTSLHIHGVPPPVLNSPQGNSIYIRPYITTPGGTTRQTQQHSGWVSQFNPMNPQQVYQPSQPGPWTTCPASNPLSHTSSQQPNQQGHQTSHVYMPISSPTTSQPPTIHSSGSSQSSAHSQYNIQNISTGPRKNQIEIKLEPPQRNNSSKLRSSGPRTSSTSSSVNSQTLNRNQPTVYIAASPPNTDELMSRSQPKVYISANAATGDEQVMRNQPTLFISTNSGASAASRNMSGQVSMGPAFIHHHPPKSRAIGNNSATSPRVVVTQPNTKYTFKITVSPNKPPAVSPGVVSPTFELTNLLNHPDHYVETENIQHLTDPTLAHVDRISETRKLSMGSDDAAYTQALLVHQKARMERLQRELEIQKKKLDKLKSEVNEMENNLTRRRLKRSNSISQIPSLEEMQQLRSCNRQLQIDIDCLTKEIDLFQARGPHFNPSAIHNFYDNIGFVGPVPPKPKDQRSIIKTPKTQDTEDDEGAQWNCTACTFLNHPALIRCEQCEMPRHF
B3: TAK1-binding protein TAB3 (protein, UniProt Q8N5C8 1-712)
chain: MAQSSPQLDIQVLHDLRQRFPEIPEGVVSQCMLQNNNNLEACCRALSQESSKYLYMEYHSPDDNRMNRNRLLHINLGIHSPSSYHPGDGAQLNGGRTLVHSSSDGHIDPQHAAGKQLICLVQEPHSAPAVVAATPNYNPFFMNEQNRSAATPPSQPPQQPSSMQTGMNPSAMQGPSPPPPPPSYMHIPRYSTNPITVTVSQNLPSGQTVPRALQILPQIPSNLYGSPGSIYIRQTSQSSSGRQTPQSTPWQSSPQGPVPHYSQRPLPVYPHQQNYQPSQYSPKQQQIPQSAYHSPPPSQCPSPFSSPQHQVQPSQLGHIFMPPSPSTTPPHPYQQGPPSYQKQGSHSVAYLPYTASSLSKGSMKKIEITVEPSQRPGTAINRSPSPISNQPSPRNQHSLYTATTPPSSSPSRGISSQPKPPFSVNPVYITYTQPTGPSCTPSPSPRVIPNPTTVFKITVGRATTENLLNLVDQEERSAAPEPIQPISVIPGSGGEKGSHKYQRSSSSGSDDYAYTQALLLHQRARMERLAKQLKLEKEELERLKSEVNGMEHDLMQRRLRRVSCTTAIPTPEEMTRLRSMNRQLQINVDCTLKEVDLLQSRGNFDPKAMNNFYDNIEPGPVVPPKPSKKDSSDPCTIERKARRISVTSKVQADIHDTQAAAADEHRTGSTQSPRTQPRDEDYEGAPWNCDSCTFLNHPALNRCEQCEMPRYT
B4: TAB1 overexpressed from pCMV-TAB1 (protein, UniProt Q15750 1-504)
chain: MAAQRRSLLQSEQQPSWTDDLPLCHLSGVGSASNRSYSADGKGTESHPPEDSWLKFRSENNCFLYGVFNGYDGNRVTNFVAQRLSAELLLGQLNAEHAEADVRRVLLQAFDVVERSFLESIDDALAEKASLQSQLPEGVPQHQLPPQYQKILERLKTLEREISGGAMAVVAVLLNNKLYVANVGTNRALLCKSTVDGLQVTQLNVDHTTENEDELFRLSQLGLDAGKIKQVGIICGQESTRRIGDYKVKYGYTDIDLLSAAKSKPIIAEPEIHGAQPLDGVTGFLVLMSEGLYKALEAAHGPGQANQEIAAMIDTEFAKQTSLDAVAQAVVDRVKRIHSDTFASGGERARFCPRHEDMTLLVRNFGYPLGEMSQPTPSPAPAAGGRVYPVSVPYSSAQSTSKTSVTLSLVMPSQGQMVNGAHSASTLDEATPTLTNQSPTLTLQSTNTHTQSSSSSSDGGLFRSRPAHSLPPGEDGRVEPYVDFAEFYRLWSVDHGEQSVVTAP
B5: SUMO-activating enzyme subunit 1 (SAE1) (enzyme, UniProt Q9UBE0 1-346)
chain: MVEKEEAGGGISEEEAAQYDRQIRLWGLEAQKRLRASRVLLVGLKGLGAEIAKNLILAGVKGLTMLDHEQVTPEDPGAQFLIRTGSVGRNRAEASLERAQNLNPMVDVKVDTEDIEKKPESFFTQFDAVCLTCCSRDVIVKVDQICHKNSIKFFTGDVFGYHGYTFANLGEHEFVEEKTKVAKVSQGVEDGPDTKRAKLDSSETTMVKKKVVFCPVKEALEVDWSSEKAKAALKRTTSDYFLLQVLLKFRTDKGRDPSSDTYEEDSELLLQIRNDVLDSLGISPDLLPEDFVRYCFSEMAPVCAVVGGILAQEIVKALSQRDPPHNNFFFFDGMKGNGIVECLGPK
B6: CDC37 (protein, UniProt Q16543 1-378)
chain: MVDYSVWDHIEVSDDEDETHPNIDTASLFRWRHQARVERMEQFQKEKEELDRGCRECKRKVAECQRKLKELEVAEGGKAELERLQAEAQQLRKEERSWEQKLEEMRKKEKSMPWNVDTLSKDGFSKSMVNTKPEKTEEDSEEVREQKHKTFVEKYEKQIKHFGMLRRWDDSQKYLSDNVHLVCEETANYLVIWCIDLEVEEKCALMEQVAHQTIVMQFILELAKSLKVDPRACFRQFFTKIKTADRQYMEGFNDELEAFKERVRGRAKLRIEKAMKEYEEEERKKRLGPGGLDPVEVYESLPEELQKCFDVKDVQMLQDAISKMDPTDAKYHMQRCIDSGLWVPNSKASEAKEGEEAGPGDPLLEAVPKTGDEKDVSV

Assays:
[1] = biological target: T1, Transforming growth factor-β (TGFβ)-activated kinase 1 (TAK1), endogenous (human (endogenous in AGS)) (UniProt O43318); assay: affinity purification with mass spectrometry; endogenous TAK1 immunoprecipitated from mock- or TAB1-transfected uninfected AGS cells, on-bead trypsin digestion, LC-MS/MS; isotype antibody IP as filter; proteins found in at least 2 experiments
T1 sequence: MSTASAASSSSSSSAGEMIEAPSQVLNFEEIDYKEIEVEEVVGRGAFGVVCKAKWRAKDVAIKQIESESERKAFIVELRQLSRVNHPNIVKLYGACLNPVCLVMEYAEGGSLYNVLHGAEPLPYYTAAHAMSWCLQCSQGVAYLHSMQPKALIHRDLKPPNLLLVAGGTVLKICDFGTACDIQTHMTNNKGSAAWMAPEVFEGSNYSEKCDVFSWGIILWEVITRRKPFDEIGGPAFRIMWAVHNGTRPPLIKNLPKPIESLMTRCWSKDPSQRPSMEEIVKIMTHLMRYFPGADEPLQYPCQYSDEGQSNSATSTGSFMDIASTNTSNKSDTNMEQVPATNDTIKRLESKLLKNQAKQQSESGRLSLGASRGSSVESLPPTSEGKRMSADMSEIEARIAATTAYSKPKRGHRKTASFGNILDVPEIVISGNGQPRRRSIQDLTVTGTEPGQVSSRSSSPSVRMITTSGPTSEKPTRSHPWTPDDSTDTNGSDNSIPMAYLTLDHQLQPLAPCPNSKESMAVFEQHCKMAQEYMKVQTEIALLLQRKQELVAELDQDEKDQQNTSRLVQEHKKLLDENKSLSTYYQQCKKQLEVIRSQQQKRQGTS

[2] = biological target: T2, TAK1 overexpressed from pCMV-TAK1 (UniProt O43318); assay: affinity purification with mass spectrometry; overexpressed TAK1 immunoprecipitated from untreated, H. pylori-infected (20 and 45 min) and TAB1-co-expressing AGS cells, on-bead trypsin digestion, LC-MS/MS; isotype antibody IP as filter; proteins found in at least 2 experiments
T2 sequence: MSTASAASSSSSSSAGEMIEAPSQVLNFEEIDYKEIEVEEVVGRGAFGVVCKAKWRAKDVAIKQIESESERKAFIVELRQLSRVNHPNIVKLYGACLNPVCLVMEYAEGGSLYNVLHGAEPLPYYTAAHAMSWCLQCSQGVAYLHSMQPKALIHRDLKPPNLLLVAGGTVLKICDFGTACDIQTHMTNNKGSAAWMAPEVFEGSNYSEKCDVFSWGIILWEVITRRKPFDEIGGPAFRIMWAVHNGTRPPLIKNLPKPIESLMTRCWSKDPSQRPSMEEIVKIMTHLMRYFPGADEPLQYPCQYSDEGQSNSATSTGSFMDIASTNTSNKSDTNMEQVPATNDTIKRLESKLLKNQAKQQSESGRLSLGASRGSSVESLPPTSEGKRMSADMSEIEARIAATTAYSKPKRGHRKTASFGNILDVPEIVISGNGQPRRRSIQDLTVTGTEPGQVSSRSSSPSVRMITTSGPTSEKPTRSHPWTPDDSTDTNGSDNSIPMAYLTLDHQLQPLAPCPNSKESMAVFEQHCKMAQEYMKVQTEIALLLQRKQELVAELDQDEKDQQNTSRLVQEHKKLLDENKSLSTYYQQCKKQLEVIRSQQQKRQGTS

[3] = biological target: T1, Transforming growth factor-β (TGFβ)-activated kinase 1 (TAK1), endogenous (human (endogenous in AGS)); assay: affinity purification with mass spectrometry; endogenous TAK1 immunoprecipitated from mock- or TAB1-transfected uninfected AGS cells, on-bead trypsin digestion, LC-MS/MS; isotype antibody IP as filter; proteins found in at least 2 experiments; remark: listed apart in the source
[4] = biological target: T2, TAK1 overexpressed from pCMV-TAK1; assay: affinity purification with mass spectrometry; overexpressed TAK1 immunoprecipitated from untreated, H. pylori-infected (20 and 45 min) and TAB1-co-expressing AGS cells, on-bead trypsin digestion, LC-MS/MS; isotype antibody IP as filter; proteins found in at least 2 experiments; remark: listed apart in the source

| Molecule | binding [2] | binding [4] | further results |
| --- | --- | --- | --- |
| Asp-Glu-Ala-Asp (DEAD)-box helicase DDX3 (from UniProt O00571 1-662) (enzyme) | – | – | binding [1]: binds |
| CCT7, subunit of the chaperoning T complex (CCT) (from UniProt Q99832 1-543) | binds | – | – |
| CCT8, subunit of the chaperoning T complex (CCT) (from UniProt P50990 1-548) | binds | – | – |
| EIF2S1 (from UniProt P05198 1-315) | binds | – | – |
| NPM1 (from UniProt P06748 1-294) | binds | – | – |
| PPP1CA, catalytic subunit of serine/threonine-protein phosphatase 1 (PP1) (from UniProt P62136 1-330) (enzyme) | binds | – | – |
| PPP1CB, catalytic subunit of serine/threonine-protein phosphatase 1 (PP1) (from UniProt P62140 1-327) (enzyme) | binds | – | – |
| PPP1CC, catalytic subunit of serine/threonine-protein phosphatase 1 (PP1) (from UniProt P36873 1-323) (enzyme) | binds | – | – |
| PPP2A, catalytic subunit of serine/threonine-protein phosphatase 2A (PP2A) (from UniProt P67775 1-309) (enzyme) | binds | – | – |
| PPP2B, catalytic subunit of serine/threonine-protein phosphatase 2A (PP2A) (from UniProt P62714 1-309) (enzyme) | binds | – | – |
| Tripartite motif 28 (TRIM28) (from UniProt Q13263 1-835) | binds | – | binding [1]: binds |
| Tripartite motif (TRIM)21 (from UniProt P19474 1-475) | binds | – | binding [1]: binds |
| YWHAZ (14-3-3-zeta) (from UniProt P63104 1-245) | binds | – | – |
| poly(rC)-binding protein (PCBP)1 (from UniProt Q15365 1-356) | – | – | binding [1]: binds |
| B1 | – | binds | binding [3]: binds |
| B2 | – | binds | binding [3]: binds |
| B3 | – | binds | binding [3]: binds |
| B4 | – | binds | binding [3]: binds |
| B5 | – | binds | – |
| B6 | – | binds | – |

Where two headings read alike, the source gives them in different places. No constants are given. Whether binding was seen depends on the method and setting. In cells and extracts the contact can be indirect. These calls come from enrichment with a bait or labelling near it, and not all partners need be listed.
